Source: paper PMC7884723
These are yes or no findings as the source states them, for the method shown. In cells and extracts the contact can be indirect. Some entries that bind do so weakly or less than the wild type.

The chains behind the UniProt entries cited, without tags or fusion partners.
UniProt Q9Y6Q9: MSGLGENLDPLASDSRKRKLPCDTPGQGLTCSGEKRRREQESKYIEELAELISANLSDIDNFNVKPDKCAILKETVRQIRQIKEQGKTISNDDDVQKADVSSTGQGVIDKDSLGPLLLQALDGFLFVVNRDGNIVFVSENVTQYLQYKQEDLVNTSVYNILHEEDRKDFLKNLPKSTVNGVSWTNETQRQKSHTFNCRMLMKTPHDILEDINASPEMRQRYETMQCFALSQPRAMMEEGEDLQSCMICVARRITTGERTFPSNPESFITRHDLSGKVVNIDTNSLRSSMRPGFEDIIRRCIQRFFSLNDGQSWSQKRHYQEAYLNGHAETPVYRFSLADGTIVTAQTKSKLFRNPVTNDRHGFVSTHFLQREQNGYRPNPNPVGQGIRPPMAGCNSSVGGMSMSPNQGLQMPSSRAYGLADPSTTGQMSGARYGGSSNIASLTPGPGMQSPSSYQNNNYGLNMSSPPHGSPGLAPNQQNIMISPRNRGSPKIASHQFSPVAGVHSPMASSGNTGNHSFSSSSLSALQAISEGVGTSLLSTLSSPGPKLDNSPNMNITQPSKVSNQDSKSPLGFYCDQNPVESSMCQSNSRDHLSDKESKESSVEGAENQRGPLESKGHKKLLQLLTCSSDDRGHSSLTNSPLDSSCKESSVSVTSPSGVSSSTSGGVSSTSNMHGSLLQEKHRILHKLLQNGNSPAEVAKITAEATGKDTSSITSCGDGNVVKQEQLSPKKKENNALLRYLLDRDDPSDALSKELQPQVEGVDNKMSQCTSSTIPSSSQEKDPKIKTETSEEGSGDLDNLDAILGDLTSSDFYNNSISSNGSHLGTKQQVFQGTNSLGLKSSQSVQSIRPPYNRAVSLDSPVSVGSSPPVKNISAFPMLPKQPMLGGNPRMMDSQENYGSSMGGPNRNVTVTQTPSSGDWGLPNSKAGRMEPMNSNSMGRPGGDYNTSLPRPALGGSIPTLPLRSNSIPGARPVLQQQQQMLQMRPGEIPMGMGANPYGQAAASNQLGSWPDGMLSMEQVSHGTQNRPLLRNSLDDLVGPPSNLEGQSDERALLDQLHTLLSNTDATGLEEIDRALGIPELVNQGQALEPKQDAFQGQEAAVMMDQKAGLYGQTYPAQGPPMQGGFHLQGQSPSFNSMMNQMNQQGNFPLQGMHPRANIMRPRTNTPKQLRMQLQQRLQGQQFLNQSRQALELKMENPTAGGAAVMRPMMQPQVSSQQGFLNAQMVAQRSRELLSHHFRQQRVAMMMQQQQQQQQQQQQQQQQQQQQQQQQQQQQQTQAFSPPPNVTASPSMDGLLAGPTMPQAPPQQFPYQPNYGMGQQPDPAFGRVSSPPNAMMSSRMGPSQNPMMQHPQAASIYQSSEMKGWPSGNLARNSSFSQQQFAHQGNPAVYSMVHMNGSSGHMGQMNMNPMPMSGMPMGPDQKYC
UniProt Q09472: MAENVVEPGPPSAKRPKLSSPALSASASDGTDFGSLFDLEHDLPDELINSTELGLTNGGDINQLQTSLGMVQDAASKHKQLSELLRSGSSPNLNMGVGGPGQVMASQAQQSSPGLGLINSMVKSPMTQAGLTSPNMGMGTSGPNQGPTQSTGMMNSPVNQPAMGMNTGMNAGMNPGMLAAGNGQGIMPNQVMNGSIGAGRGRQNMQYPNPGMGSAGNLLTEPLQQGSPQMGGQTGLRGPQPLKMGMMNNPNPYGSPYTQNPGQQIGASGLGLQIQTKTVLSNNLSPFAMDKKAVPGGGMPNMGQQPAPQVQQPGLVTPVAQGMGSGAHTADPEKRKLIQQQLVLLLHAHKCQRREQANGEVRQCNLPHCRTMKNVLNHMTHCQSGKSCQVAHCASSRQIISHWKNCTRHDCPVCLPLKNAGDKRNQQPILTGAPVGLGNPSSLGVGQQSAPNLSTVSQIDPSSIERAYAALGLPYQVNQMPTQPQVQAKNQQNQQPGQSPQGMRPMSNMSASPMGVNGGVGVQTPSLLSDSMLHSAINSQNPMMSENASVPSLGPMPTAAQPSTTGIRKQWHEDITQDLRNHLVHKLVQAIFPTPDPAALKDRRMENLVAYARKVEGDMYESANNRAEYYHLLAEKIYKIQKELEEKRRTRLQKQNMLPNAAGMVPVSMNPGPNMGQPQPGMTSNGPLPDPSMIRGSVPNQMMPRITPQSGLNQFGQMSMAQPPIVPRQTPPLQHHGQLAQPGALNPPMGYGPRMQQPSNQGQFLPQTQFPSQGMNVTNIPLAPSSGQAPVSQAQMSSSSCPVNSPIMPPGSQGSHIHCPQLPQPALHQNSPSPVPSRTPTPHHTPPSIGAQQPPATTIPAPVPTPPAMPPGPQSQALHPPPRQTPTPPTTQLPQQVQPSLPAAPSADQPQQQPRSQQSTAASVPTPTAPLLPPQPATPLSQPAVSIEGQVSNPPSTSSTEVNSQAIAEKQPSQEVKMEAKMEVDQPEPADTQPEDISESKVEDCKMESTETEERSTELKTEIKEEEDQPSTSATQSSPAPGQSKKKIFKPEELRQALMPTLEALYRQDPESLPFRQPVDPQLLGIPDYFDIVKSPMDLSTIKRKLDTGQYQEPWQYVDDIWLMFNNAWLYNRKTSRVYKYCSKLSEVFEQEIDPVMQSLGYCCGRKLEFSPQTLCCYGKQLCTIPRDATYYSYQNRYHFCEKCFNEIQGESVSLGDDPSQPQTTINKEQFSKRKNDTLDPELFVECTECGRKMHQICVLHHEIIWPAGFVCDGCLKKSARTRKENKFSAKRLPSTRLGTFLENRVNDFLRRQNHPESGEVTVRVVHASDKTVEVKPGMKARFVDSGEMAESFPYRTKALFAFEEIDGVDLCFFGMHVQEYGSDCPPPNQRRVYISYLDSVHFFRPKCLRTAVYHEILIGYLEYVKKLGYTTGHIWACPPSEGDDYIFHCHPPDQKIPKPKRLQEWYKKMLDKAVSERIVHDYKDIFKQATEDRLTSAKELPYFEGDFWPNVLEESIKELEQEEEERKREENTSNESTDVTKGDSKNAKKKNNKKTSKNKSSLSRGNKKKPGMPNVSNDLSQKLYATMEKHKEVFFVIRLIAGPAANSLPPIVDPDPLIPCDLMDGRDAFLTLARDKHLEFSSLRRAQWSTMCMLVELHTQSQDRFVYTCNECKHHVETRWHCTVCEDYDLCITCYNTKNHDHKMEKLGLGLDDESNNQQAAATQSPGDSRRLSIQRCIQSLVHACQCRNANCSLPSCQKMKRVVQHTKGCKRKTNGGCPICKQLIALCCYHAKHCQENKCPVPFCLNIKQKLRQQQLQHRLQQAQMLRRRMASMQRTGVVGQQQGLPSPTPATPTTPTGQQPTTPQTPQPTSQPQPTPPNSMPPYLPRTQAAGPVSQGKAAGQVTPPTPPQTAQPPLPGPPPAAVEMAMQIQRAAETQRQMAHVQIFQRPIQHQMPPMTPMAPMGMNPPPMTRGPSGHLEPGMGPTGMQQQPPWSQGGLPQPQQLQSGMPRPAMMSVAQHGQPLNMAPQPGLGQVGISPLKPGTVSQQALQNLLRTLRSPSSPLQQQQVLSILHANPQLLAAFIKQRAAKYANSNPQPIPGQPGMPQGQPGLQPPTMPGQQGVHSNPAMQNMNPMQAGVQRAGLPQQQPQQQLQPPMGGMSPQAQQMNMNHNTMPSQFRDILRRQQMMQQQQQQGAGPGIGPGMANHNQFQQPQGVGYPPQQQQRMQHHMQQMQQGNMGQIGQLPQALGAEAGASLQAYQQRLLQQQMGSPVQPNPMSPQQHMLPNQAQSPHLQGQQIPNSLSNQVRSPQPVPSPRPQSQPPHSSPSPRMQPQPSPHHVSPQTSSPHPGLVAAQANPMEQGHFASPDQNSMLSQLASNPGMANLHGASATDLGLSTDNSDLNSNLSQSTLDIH
UniProt O96028: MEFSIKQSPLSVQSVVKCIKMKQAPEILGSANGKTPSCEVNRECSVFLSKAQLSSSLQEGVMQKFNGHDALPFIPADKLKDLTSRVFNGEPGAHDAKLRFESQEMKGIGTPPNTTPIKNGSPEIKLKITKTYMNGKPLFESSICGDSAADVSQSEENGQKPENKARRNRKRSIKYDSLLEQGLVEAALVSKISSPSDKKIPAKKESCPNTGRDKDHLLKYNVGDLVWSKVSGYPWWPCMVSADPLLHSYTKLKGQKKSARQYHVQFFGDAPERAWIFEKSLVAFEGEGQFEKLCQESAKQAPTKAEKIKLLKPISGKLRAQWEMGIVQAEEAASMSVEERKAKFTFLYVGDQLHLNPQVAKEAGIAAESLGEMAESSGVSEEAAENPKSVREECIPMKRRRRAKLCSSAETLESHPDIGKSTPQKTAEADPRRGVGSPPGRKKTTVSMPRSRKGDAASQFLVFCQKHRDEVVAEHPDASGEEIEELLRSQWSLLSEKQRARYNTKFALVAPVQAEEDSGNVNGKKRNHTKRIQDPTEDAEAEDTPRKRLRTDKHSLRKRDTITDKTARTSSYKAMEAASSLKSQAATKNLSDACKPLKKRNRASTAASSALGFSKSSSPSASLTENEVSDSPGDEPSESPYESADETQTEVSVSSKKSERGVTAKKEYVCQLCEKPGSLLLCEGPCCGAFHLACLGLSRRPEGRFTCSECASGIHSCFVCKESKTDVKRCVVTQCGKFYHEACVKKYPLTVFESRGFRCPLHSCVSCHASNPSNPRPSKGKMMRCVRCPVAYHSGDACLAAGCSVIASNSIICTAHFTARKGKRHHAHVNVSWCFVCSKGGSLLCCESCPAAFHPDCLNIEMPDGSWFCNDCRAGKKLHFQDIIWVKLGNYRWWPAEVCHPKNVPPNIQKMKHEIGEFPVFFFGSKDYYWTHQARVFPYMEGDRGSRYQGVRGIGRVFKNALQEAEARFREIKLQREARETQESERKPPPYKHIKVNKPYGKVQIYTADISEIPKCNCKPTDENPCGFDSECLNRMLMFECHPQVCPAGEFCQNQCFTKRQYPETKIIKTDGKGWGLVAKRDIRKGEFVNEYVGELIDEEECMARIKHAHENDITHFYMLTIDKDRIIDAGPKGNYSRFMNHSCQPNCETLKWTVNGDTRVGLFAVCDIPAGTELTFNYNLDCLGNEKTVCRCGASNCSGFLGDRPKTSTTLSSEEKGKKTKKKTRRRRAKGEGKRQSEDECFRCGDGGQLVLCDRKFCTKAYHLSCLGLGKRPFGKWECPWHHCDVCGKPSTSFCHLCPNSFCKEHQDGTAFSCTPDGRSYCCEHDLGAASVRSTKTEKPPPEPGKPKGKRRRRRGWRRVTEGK
UniProt Q99873: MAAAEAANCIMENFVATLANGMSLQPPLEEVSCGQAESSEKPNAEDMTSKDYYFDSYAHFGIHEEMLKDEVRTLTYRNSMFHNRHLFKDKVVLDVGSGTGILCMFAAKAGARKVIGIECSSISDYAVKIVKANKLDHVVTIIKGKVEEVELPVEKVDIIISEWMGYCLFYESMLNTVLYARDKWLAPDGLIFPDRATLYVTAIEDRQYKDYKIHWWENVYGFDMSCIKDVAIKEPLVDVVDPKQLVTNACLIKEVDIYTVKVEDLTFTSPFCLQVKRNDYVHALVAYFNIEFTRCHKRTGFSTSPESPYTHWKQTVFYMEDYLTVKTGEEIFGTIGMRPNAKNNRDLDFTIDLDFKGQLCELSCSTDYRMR

Experiments:
[1] = biological target: flag-tagged steroid receptor coactivator-3 (SRC-3-3×flag), expressed in myeloma cells (human) (UniProt Q9Y6Q9); experiment: co-IP; SRC-3-3×flag as bait, IP with M2-flag antibody (anti-FLAG M2 Affinity Gel), NP-40 lysis buffer (50 mM Tris-HCl pH 7.4, 150 mM NaCl), blots of endogenous partners; input 2% lysate
[2] = biological target: steroid receptor coactivator-3 (SRC-3), endogenous in myeloma cells (human (endogenous in myeloma cells)) (UniProt Q9Y6Q9); experiment: co-IP; endogenous proteins in myeloma cells without SI-2; IP with anti-SRC-3 antibody and protein G dynabeads, NP-40 lysis buffer; input 2% whole cell lysate
[3] = biological target: steroid receptor coactivator-3 (SRC-3), endogenous in myeloma cells (human (endogenous in myeloma cells)) (UniProt Q9Y6Q9); experiment: co-IP; endogenous proteins in myeloma cells treated with 25 nM SI-2 for 16 h; IP with anti-SRC-3 antibody; input 2% whole cell lysate
[4] = biological target: steroid receptor coactivator-3 (SRC-3), endogenous in myeloma cells (human (endogenous in myeloma cells)) (UniProt Q9Y6Q9); experiment: proximity ligation; Duolink In Situ on fixed myeloma cells (wild type and bortezomib-resistant), mouse anti-NSD2 and rabbit anti-SRC-3 antibodies
[5] = biological target: full-length SRC-3 (FL), expressed in HEK293T cells (human) (UniProt Q9Y6Q9); experiment: co-IP; SRC-3 and NSD2 constructs (full length or domain deletions) co-expressed in HEK293T cells; IP with M2-flag antibody or HA antibody; NP-40 lysis buffer; input 2% whole lysate

binding [1]	binding [2]	binding [3]	binding [4]	binding [5]	Substance
binds	–	–	–	–	p300, endogenous in myeloma cells (from UniProt Q09472 1-2414)
binds	binds	binds weakly	binds	–	histone-lysine N-methyltransferase NSD2, endogenous in myeloma cells (from UniProt O96028 1-1365)
–	–	–	–	binds	full-length NSD2 (FL), expressed in HEK293T cells (from UniProt O96028 1-1365)
binds	–	–	–	–	PRMT1, endogenous in myeloma cells (from UniProt Q99873 1-371)
